PubChem BioAssay AID1259308, NCATS | 2017
Screen: 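Candidate targets for better recombinant protein yield in mammalian cells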 (primary screen). System: human HEK293 embryonic kidney cells stably expressing firefly luciferase (HEK-CMV-Luc2-Hygro). Reagents: single siRNA against human genes, 0.8 pmol siRNA per well. Time to read-out: 72 h. Measurement: 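Luciferase light (ONE-Glo) measured on one replicate plate set and viability (CellTiter-Glo) on the other, scaled to a negative control siRNA, with robust z-scores and luciferase per cell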. Scale: total luciferase, z-score and total luciferase, % of control: higher = more reporter protein produced; luciferase per cell, z-score: higher = more reporter output per viable cell. Hit rule: 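Active when the median/MAD z-score for overall luciferase is greater than 3; a gene was taken forward for validation with new siRNAs if at least two of its three siRNAs passed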. Meaning of the calls: active = raised luciferase; inactive = no rise.
This is an unselected part of about 59,000 reagents. In the full data, about 1,510 (2.6%) are marked active. 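Calls use total luciferase alone and ignore viability, so some active siRNAs may act by altering cell number.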 A number with no mark means an inactive call. The numbers tell different reagents against one gene apart. Not all columns of the deposit are shown.

no.	gene symbol	reagent no.	total luciferase, z-score	total luciferase, % of control	luciferase per cell, z-score
1	SORD2P (sorbitol dehydrogenase 2, pseudogene)	1	0.381	89.5	0.35
2	SORD2P (sorbitol dehydrogenase 2, pseudogene)	2	-0.977	62.4	-1.22
3	SORD2P (sorbitol dehydrogenase 2, pseudogene)	3	0.238	86.6	0.47
4	COPS6 (COP9 signalosome subunit 6)	1	0.828	98.4	1.3
5	COPS6 (COP9 signalosome subunit 6)	2	-0.179	78.3	-0.464
6	COPS6 (COP9 signalosome subunit 6)	3	-0.822	65.5	-0.544
7	AP3S1 (adaptor related protein complex 3 subunit sigma 1)	1	-0.419	73.6	-0.752
8	AP3S1 (adaptor related protein complex 3 subunit sigma 1)	2	-0.413	73.7	0.243
9	AP3S1 (adaptor related protein complex 3 subunit sigma 1)	3	-0.564	70.7	-0.718
10	PRPF6 (pre-mRNA processing factor 6)	1	1.67	115	1.18
11	PRPF6 (pre-mRNA processing factor 6)	2	0.64	94.6	0.698
12	PRPF6 (pre-mRNA processing factor 6)	3	-0.667	68.6	0.335
13	SLC38A8	1	0.0338	82.6	0.235
14	SLC38A8	2	2.83	138	2.08
15	SLC38A8	3	0.614	94.1	0.135
16	SF3A2P1 (SF3A2 pseudogene 1)	1	3.18 (active)	145	3.35
17	SF3A2P1 (SF3A2 pseudogene 1)	2	1.72	116	1.66
18	SF3A2P1 (SF3A2 pseudogene 1)	3	1.15	105	1.11
19	APTX (aprataxin)	1	-1.51	51.9	-0.942
20	APTX (aprataxin)	2	-0.0986	79.9	-0.414
21	APTX (aprataxin)	3	-0.701	67.9	-1.15
22	MAP1LC3A (microtubule associated protein 1 light chain 3 alpha)	1	1.17	105	1.3
23	MAP1LC3A (microtubule associated protein 1 light chain 3 alpha)	2	-2.52	31.8	-3.05
24	MAP1LC3A (microtubule associated protein 1 light chain 3 alpha)	3	-0.471	72.5	-0.554
25	RPL18 (ribosomal protein L18)	1	-2.91	23.9	-1.84
26	RPL18 (ribosomal protein L18)	2	-2.78	26.6	-1.19
27	RPL18 (ribosomal protein L18)	3	-2.77	26.9	-2.19
28	SUMF1 (sulfatase modifying factor 1)	1	0.315	88.2	0.686
29	SUMF1 (sulfatase modifying factor 1)	2	0.144	84.7	-0.136
30	SUMF1 (sulfatase modifying factor 1)	3	-2.6	30.2	-3.86
31	KCNN4 (potassium calcium-activated channel subfamily N member 4)	1	0.817	98.1	0.956
32	KCNN4 (potassium calcium-activated channel subfamily N member 4)	2	0.291	87.7	0.747
33	KCNN4 (potassium calcium-activated channel subfamily N member 4)	3	1.73	116	1.06
34	LACTBL1 (lactamase beta like 1)	1	0.173	85.3	0.275
35	LACTBL1 (lactamase beta like 1)	2	0.163	85.1	0.486
36	LACTBL1 (lactamase beta like 1)	3	-0.673	68.5	-0.364
37	ZC3H13 (zinc finger CCCH-type containing 13)	1	-1.6	50	-2.46
38	ZC3H13 (zinc finger CCCH-type containing 13)	2	-1.61	49.9	-1.99
39	ZC3H13 (zinc finger CCCH-type containing 13)	3	-1.77	46.8	-2.99
40	RAP1B (RAP1B, member of RAS oncogene family)	1	-2.05	41	-2.28
41	RAP1B (RAP1B, member of RAS oncogene family)	2	0.0761	83.4	0.0699
42	RAP1B (RAP1B, member of RAS oncogene family)	3	0.316	88.2	-0.401
43	ATXN3 (ataxin 3)	1	-0.0999	79.9	-0.622
44	ATXN3 (ataxin 3)	2	0.178	85.4	0.184
45	ATXN3 (ataxin 3)	3	2.6	134	2.31
46	LAPTM4BP1 (lysosomal protein transmembrane 4 beta pseudogene 1)	1	1.55	113	2.95
47	LAPTM4BP1 (lysosomal protein transmembrane 4 beta pseudogene 1)	2	-0.766	66.7	-1.07
48	LAPTM4BP1 (lysosomal protein transmembrane 4 beta pseudogene 1)	3	-0.422	73.5	-0.565
49	PRSS35 (serine protease 35)	1	0.303	87.9	-0.152
50	PRSS35 (serine protease 35)	2	-0.00675	81.8	-0.496
51	PRSS35 (serine protease 35)	3	0.72	96.2	0.197
52	CCDC85B (coiled-coil domain containing 85B)	1	-0.045	81	-0.774
53	CCDC85B (coiled-coil domain containing 85B)	2	0.179	85.5	0.018
54	CCDC85B (coiled-coil domain containing 85B)	3	3.66 (active)	155	1.56
55	CTSA (cathepsin A)	1	0.0565	83	0.663
56	CTSA (cathepsin A)	2	0.174	85.3	-0.487
57	CTSA (cathepsin A)	3	-0.00994	81.7	-0.14
58	PSKH1 (protein serine kinase H1)	1	-0.736	67.2	0.409
59	PSKH1 (protein serine kinase H1)	2	1.26	107	1.01
60	PSKH1 (protein serine kinase H1)	3	-1.23	57.4	-1.22
61	DYNAP (dynactin associated protein)	1	-3.28	16.7	-2.68
62	DYNAP (dynactin associated protein)	2	-1.21	57.8	-0.672
63	DYNAP (dynactin associated protein)	3	-0.194	78	-0.502
64	ANKRD44 (ankyrin repeat domain 44)	1	-0.66	68.8	-0.436
65	ANKRD44 (ankyrin repeat domain 44)	2	0.423	90.3	0.96
66	ANKRD44 (ankyrin repeat domain 44)	3	-1.29	56.3	-0.539
67	TPK1 (thiamin pyrophosphokinase 1)	1	-1.12	59.5	-1.71
68	TPK1 (thiamin pyrophosphokinase 1)	2	-0.249	76.9	-0.767
69	TPK1 (thiamin pyrophosphokinase 1)	3	-0.322	75.5	-0.572
70	HNF4A (hepatocyte nuclear factor 4 alpha)	1	0.282	87.5	-0.187
71	HNF4A (hepatocyte nuclear factor 4 alpha)	2	-1.5	52	0.122
72	HNF4A (hepatocyte nuclear factor 4 alpha)	3	0.0198	82.3	-0.336
73	OVOL2 (ovo like zinc finger 2)	1	-2.39	34.4	-1.83
74	OVOL2 (ovo like zinc finger 2)	2	-0.185	78.2	1.36
75	OVOL2 (ovo like zinc finger 2)	3	0.83	98.4	1.13

No new results follow: entries from further up.
no.	gene symbol	reagent no.	total luciferase, z-score	total luciferase, % of control	luciferase per cell, z-score
60	PSKH1 (protein serine kinase H1)	3	-1.23	57.4	-1.22
61	DYNAP (dynactin associated protein)	1	-3.28	16.7	-2.68
62	DYNAP (dynactin associated protein)	2	-1.21	57.8	-0.672
63	DYNAP (dynactin associated protein)	3	-0.194	78	-0.502
64	ANKRD44 (ankyrin repeat domain 44)	1	-0.66	68.8	-0.436
65	ANKRD44 (ankyrin repeat domain 44)	2	0.423	90.3	0.96
66	ANKRD44 (ankyrin repeat domain 44)	3	-1.29	56.3	-0.539
